In the supplement of paper PMC10849652:
The other results are listed elsewhere or left out.

The chains behind the UniProt entries cited, without tags or fusion partners. Where a name states a change or a piece, a line headed by the entry shows the natural chain unless it says otherwise.
UniProt Q9NWD9: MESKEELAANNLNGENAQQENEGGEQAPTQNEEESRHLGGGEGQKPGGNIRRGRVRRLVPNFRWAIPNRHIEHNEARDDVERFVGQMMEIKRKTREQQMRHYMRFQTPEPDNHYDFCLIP
UniProt O60238, whole entry, looked up: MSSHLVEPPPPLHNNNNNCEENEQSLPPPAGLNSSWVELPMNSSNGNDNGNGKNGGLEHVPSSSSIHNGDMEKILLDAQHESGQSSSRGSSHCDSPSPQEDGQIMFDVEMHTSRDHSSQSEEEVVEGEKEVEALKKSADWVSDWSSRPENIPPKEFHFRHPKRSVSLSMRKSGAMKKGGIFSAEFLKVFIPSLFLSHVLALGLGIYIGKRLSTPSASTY
UniProt O43505: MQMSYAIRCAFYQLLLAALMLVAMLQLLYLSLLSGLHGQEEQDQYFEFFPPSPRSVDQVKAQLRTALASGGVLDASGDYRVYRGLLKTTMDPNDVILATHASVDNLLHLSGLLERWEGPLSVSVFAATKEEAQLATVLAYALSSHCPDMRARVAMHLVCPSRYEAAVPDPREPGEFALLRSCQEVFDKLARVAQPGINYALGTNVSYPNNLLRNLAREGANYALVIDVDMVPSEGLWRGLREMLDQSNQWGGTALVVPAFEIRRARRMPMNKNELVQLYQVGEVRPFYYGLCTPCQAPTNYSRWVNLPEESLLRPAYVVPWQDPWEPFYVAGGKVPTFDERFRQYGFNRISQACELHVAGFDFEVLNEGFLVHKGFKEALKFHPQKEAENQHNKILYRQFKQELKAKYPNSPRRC
UniProt Q76KP1: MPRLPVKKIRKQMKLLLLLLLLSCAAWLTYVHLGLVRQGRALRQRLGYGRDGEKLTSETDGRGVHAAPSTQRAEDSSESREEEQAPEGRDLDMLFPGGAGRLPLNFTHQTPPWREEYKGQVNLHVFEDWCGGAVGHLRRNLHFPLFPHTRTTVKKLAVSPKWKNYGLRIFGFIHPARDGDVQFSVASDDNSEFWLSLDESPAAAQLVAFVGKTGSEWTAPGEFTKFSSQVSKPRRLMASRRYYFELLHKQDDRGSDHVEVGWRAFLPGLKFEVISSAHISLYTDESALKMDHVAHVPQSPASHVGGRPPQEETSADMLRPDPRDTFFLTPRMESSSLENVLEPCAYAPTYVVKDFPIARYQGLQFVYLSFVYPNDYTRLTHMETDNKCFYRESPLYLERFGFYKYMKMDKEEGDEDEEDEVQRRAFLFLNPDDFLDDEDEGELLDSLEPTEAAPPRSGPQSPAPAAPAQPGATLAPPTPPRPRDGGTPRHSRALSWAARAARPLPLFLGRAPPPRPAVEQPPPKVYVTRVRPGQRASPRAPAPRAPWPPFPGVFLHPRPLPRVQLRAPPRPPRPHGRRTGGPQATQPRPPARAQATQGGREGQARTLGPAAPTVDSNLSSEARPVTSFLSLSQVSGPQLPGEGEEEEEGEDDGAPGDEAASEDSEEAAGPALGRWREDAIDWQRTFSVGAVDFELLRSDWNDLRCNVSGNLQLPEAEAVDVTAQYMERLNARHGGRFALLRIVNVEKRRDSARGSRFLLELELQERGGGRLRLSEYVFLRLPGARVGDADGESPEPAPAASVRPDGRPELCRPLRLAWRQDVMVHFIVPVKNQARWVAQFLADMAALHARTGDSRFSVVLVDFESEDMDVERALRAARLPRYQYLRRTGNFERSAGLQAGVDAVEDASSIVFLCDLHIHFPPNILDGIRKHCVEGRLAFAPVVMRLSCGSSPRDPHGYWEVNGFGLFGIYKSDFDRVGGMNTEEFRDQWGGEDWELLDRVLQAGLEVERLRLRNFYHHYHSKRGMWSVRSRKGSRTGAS
UniProt Q9HAW0, whole entry, looked up: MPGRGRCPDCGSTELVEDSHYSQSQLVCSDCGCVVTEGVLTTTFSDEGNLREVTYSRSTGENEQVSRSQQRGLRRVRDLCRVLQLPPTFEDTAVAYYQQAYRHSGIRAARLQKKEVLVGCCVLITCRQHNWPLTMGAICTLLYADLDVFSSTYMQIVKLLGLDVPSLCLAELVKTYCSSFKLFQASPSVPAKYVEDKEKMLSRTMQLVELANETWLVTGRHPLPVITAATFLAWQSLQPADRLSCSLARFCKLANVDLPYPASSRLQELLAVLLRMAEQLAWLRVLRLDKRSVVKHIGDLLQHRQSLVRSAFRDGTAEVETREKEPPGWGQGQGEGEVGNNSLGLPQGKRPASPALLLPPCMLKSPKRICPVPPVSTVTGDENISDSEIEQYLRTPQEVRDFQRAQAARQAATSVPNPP
UniProt O60513: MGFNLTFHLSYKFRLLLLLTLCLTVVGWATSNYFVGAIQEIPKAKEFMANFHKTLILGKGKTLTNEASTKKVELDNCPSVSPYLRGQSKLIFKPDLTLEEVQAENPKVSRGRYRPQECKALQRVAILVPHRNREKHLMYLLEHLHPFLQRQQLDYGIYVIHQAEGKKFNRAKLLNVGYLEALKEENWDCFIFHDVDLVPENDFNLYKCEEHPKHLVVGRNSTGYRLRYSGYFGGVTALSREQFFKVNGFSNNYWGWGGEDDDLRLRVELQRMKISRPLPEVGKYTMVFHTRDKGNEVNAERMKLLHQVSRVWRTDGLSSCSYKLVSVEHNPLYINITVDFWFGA
UniProt Q6AI39, whole entry, looked up: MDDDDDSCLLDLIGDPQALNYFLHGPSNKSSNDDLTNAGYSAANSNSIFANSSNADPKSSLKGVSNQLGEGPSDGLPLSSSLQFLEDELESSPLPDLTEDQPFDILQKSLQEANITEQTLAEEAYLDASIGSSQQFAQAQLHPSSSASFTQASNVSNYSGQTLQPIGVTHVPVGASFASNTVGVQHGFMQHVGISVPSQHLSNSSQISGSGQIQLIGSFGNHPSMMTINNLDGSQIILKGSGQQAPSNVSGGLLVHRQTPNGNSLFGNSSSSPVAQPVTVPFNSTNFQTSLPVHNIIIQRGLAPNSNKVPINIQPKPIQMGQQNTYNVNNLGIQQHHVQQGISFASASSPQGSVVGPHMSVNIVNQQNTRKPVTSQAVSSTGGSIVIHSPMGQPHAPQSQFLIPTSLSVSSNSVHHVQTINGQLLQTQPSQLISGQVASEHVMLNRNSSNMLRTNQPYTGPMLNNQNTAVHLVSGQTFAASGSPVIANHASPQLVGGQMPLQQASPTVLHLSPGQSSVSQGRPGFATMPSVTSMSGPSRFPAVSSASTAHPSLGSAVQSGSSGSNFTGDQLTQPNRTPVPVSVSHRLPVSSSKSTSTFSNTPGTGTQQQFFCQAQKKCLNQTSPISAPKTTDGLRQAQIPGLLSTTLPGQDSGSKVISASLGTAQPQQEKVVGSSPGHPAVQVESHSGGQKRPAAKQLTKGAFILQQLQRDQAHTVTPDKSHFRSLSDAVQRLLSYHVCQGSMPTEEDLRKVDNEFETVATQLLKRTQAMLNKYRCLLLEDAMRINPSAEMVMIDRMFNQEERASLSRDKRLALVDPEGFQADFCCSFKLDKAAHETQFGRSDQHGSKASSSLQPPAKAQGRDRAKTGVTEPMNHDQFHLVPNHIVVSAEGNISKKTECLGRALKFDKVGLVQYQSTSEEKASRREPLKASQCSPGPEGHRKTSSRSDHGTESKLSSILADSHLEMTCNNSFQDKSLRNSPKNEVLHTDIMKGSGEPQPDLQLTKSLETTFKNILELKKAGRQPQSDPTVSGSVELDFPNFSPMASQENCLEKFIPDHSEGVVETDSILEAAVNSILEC
UniProt Q1RMZ1: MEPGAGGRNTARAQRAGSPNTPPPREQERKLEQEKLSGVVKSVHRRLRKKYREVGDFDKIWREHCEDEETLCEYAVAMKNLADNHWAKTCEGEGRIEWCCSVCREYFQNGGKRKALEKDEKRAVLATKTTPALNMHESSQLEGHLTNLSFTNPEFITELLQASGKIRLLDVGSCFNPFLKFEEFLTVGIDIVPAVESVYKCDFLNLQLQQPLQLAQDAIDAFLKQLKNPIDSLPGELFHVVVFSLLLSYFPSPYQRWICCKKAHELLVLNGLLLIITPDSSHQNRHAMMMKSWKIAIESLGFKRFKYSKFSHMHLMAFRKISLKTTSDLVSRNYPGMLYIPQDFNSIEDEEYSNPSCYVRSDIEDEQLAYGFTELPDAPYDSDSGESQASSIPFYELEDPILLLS
UniProt P62324: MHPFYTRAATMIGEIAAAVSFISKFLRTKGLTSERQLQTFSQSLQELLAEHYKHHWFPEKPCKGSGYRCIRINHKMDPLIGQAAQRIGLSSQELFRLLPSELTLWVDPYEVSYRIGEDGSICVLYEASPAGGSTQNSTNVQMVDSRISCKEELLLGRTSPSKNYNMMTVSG
UniProt Q9NSI6, whole entry, looked up: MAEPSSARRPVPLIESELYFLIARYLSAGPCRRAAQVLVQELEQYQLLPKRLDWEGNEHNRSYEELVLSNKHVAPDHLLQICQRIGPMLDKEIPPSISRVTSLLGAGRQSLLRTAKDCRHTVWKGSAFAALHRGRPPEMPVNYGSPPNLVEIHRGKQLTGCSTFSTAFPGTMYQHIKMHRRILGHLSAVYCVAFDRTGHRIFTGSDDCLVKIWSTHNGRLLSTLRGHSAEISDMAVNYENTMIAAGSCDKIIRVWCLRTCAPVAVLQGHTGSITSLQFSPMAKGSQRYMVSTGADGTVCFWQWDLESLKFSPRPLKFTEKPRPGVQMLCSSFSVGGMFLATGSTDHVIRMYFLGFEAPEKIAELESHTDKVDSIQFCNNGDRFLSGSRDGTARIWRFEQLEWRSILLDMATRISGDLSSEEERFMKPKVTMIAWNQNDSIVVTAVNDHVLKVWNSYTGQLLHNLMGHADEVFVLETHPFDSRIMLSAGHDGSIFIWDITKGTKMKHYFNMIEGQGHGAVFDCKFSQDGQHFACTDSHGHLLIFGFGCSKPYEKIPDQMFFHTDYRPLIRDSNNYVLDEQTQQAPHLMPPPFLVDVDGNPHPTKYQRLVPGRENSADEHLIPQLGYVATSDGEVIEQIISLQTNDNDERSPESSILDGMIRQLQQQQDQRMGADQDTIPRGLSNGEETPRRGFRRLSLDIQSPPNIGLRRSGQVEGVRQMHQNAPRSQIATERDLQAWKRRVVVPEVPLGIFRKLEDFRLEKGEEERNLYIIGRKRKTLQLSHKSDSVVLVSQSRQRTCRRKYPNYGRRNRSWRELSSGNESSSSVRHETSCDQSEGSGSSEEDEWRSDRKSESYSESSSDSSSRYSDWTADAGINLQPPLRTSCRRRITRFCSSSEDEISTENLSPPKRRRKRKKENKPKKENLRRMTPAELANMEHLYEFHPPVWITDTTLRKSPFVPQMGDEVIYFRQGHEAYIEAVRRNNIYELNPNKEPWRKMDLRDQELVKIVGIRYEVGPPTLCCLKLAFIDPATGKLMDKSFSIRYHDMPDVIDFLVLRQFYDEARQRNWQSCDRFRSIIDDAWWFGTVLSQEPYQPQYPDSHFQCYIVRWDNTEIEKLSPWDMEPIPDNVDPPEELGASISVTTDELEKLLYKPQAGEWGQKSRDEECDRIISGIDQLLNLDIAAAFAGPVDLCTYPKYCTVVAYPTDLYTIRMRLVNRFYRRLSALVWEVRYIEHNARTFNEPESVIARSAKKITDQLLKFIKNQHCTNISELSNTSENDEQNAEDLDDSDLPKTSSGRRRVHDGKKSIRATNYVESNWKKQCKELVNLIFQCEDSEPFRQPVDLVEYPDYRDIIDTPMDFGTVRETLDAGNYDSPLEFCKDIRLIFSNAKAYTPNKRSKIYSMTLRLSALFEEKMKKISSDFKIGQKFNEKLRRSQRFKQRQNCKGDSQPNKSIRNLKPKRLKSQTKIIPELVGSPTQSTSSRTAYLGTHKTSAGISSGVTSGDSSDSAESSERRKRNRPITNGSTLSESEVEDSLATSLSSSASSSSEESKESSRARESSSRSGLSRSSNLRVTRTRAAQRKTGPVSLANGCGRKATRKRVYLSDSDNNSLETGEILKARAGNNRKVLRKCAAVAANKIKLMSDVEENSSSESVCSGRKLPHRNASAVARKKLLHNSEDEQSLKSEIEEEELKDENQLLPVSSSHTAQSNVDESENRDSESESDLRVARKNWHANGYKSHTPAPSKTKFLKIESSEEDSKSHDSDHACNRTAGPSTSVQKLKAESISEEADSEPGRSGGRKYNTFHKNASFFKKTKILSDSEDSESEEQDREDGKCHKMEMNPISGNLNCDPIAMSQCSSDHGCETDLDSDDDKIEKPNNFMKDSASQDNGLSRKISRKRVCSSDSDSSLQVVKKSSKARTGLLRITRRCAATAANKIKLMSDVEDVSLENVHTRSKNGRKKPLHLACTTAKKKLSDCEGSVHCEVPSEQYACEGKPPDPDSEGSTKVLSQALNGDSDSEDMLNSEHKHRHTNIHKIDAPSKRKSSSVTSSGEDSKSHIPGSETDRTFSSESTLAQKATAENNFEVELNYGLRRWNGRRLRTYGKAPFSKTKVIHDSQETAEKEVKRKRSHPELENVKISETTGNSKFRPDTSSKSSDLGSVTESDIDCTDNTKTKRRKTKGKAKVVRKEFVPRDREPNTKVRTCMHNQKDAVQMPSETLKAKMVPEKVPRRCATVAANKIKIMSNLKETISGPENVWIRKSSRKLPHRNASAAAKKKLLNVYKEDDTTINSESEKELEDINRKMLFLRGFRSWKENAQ

Legend:
Assay in all cases: log2 fold change, soluble protein after heating vs DMSO (PISA); higher = thermal stabilisation; K562 lysate, 10 uM; active = over 0.2 and 3.5 SD of the protein, either way, in both replicates (recomputed)
crizotinib = compound: C[C@@H](Oc1cc(-c2cnn(C3CCNCC3)c2)cnc1N)c1c(Cl)ccc(F)c1Cl [crizotinib]
In short: (§1)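 Soluble protein was defined as the supernatant remaining after 21,000xg for 90 min, following pooling of heated aliquots and adjustment to 0.5% NP-40 at 4°C. Before that, crude K562 extract at 1 mg/mL protein in PBS pH 7.4 with 1 mM MgCl2 was treated with 10 μM compound for 30 min and heated for 3 min across 48°C-58°C. Quantification used TMTpro 16plex LC-MS/MS with channel sums equalised, and values are log-two fold changes in thermal stability relative to solvent controls from duplicates.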

duvelisib = compound: C[C@H](Nc1ncnc2nc[nH]c12)c1cc2cccc(Cl)c2c(=O)n1-c1ccccc1 [duvelisib]
In short: as §1

tozasertib = compound: Cc1cc(Nc2cc(N3CCN(C)CC3)nc(Sc3ccc(NC(=O)C4CC4)cc3)n2)n[nH]1 [tozasertib]
In short: as §1

doramapimod = compound: Cc1ccc(-n2nc(C(C)(C)C)cc2NC(=O)Nc2ccc(OCCN3CCOCC3)c3ccccc23)cc1 [doramapimod]
In short: as §1

[1] = compound: C[C@H](C1=CC=C(C=C1)C(=O)NC2=C3C=CNC3=NC=C2)N
In short: as §1

gandotinib = compound: Cc1cc(Nc2cc(CN3CCOCC3)c3nc(C)c(Cc4ccc(Cl)cc4F)n3n2)n[nH]1 [gandotinib]
In short: as §1

[2] = compound: Cc1cccc(CC(=O)N2CCc3c2ccc(-c2cn(C)c4ncnc(N)c24)c3F)n1
In short: as §1

pictilisib = compound: CS(=O)(=O)N1CCN(Cc2cc3nc(-c4cccc5[nH]ncc45)nc(N4CCOCC4)c3s2)CC1 [pictilisib]
In short: as §1

bafetinib = compound: Cc1ccc(NC(=O)c2ccc(CN3CC[C@H](N(C)C)C3)c(C(F)(F)F)c2)cc1Nc1nccc(-c2cncnc2)n1 [bafetinib]
In short: as §1

## BBX (UniProt Q8WY36)
crizotinib
  log2 fold change: inactive: 0.155
duvelisib
  log2 fold change: inactive: -0.118
tozasertib
  log2 fold change: inactive: -0.034
doramapimod
  log2 fold change: inactive: -0.07

## BTBD2 (UniProt Q9BX70)
crizotinib
  log2 fold change: inactive: -0.031
[1]
  log2 fold change: inactive: -0.23
gandotinib
  log2 fold change: inactive: 0.07
tozasertib
  log2 fold change: inactive: 0.009
doramapimod
  log2 fold change: inactive: -0.051
[2]
  log2 fold change: inactive: 0.286

## BPIFA2 (UniProt Q96DR5)
pictilisib
  log2 fold change: inactive: -0.329
[1]
  log2 fold change: inactive: 0.353
gandotinib
  log2 fold change: inactive: -0.071
tozasertib
  log2 fold change: inactive: 1.59
bafetinib
  log2 fold change: inactive: 0.025
[2]
  log2 fold change: inactive: 1.17

## BEX4 (UniProt Q9NWD9)
crizotinib
  log2 fold change: inactive: 0.018
duvelisib
  log2 fold change: inactive: 0.034
doramapimod
  log2 fold change: inactive: 0.092

## BANP isoform 7 (UniProt Q8N9N5)
tozasertib
  log2 fold change: inactive: -0.035

## BDP1 (UniProt A6H8Y1)
crizotinib
  log2 fold change: inactive: 0.036
tozasertib
  log2 fold change: inactive: 0.009
doramapimod
  log2 fold change: inactive: 0.013

## BNIP3L (UniProt O60238)
crizotinib
  log2 fold change: inactive: -0.123
tozasertib
  log2 fold change: inactive: -0.053
doramapimod
  log2 fold change: inactive: 0.109

## BCL9 (UniProt O00512)
pictilisib
  log2 fold change: inactive: 0.002
crizotinib
  log2 fold change: inactive: 0.008
[1]
  log2 fold change: inactive: -0.086
gandotinib
  log2 fold change: inactive: 0.081
doramapimod
  log2 fold change: inactive: -0.039
bafetinib
  log2 fold change: inactive: 0.07
[2]
  log2 fold change: inactive: 0.027

## B4GAT1 (UniProt O43505)
pictilisib
  log2 fold change: inactive: 0.018
crizotinib
  log2 fold change: inactive: -0.041
duvelisib
  log2 fold change: inactive: 0.171
doramapimod
  log2 fold change: inactive: 0.009
bafetinib
  log2 fold change: inactive: -0.09

## BBS4 isoform 2 (UniProt Q96RK4)
[1]
  log2 fold change: inactive: -0.228
duvelisib
  log2 fold change: inactive: 0.048
gandotinib
  log2 fold change: inactive: -0.046
[2]
  log2 fold change: inactive: 0.245

## BCAP31, A0A2R8Y5M6
[1]
  log2 fold change: inactive: 0.112
gandotinib
  log2 fold change: inactive: 0.112
tozasertib
  log2 fold change: inactive: 0.199
[2]
  log2 fold change: inactive: -0.13

## B4GALNT4 (UniProt Q76KP1)
crizotinib
  log2 fold change: inactive: -0.061
doramapimod
  log2 fold change: inactive: -0.031

## BRAF, A0A2R8Y8E0
tozasertib
  log2 fold change: inactive: 0.035

## BTBD1 (UniProt Q9H0C5)
pictilisib
  log2 fold change: inactive: -0.007
[1]
  log2 fold change: inactive: -0.074
gandotinib
  log2 fold change: inactive: 0.035
tozasertib
  log2 fold change: inactive: -0.057
bafetinib
  log2 fold change: inactive: 0.006
[2]
  log2 fold change: inactive: -0.029

## BAIAP2 isoform 6 (UniProt Q9UQB8)
crizotinib
  log2 fold change: inactive: -0.054
[1]
  log2 fold change: inactive: -0.041
gandotinib
  log2 fold change: inactive: 0.031
doramapimod
  log2 fold change: inactive: 0.192
[2]
  log2 fold change: inactive: 0.002

## B4GALT7 (UniProt Q9UBV7)
crizotinib
  log2 fold change: inactive: -0.024
[1]
  log2 fold change: inactive: 0.218
gandotinib
  log2 fold change: inactive: -0.138
tozasertib
  log2 fold change: inactive: -0.044
doramapimod
  log2 fold change: inactive: -0.102
[2]
  log2 fold change: inactive: -0.119

## BRF2 (UniProt Q9HAW0)
tozasertib
  log2 fold change: inactive: 0.07

## BCL2 (UniProt P10415)
pictilisib
  log2 fold change: inactive: -0.037
bafetinib
  log2 fold change: inactive: 0.004

## BPIFB1 (UniProt Q8TDL5)
[1]
  log2 fold change: inactive: 0.414
gandotinib
  log2 fold change: inactive: 0.352
tozasertib
  log2 fold change: inactive: 0.407
[2]
  log2 fold change: inactive: 0.795

## B4GALT4 (UniProt O60513)
[1]
  log2 fold change: inactive: -0.075
duvelisib
  log2 fold change: inactive: -0.148
gandotinib
  log2 fold change: inactive: 0.038
[2]
  log2 fold change: inactive: 0.12

## BPIFA1 (UniProt Q9NP55)
[1]
  log2 fold change: inactive: 0.167
duvelisib
  log2 fold change: inactive: -0.06
gandotinib
  log2 fold change: inactive: 0.011
tozasertib
  log2 fold change: inactive: 0.284
[2]
  log2 fold change: inactive: 1.2

## BICRAL (UniProt Q6AI39)
tozasertib
  log2 fold change: inactive: 0.056

## BAG6 (UniProt F6WML8)
tozasertib
  log2 fold change: inactive: 0.012

## BCORL1 isoform 3 (UniProt Q5H9F3)
crizotinib
  log2 fold change: inactive: -0.162
[1]
  log2 fold change: active: -0.577
duvelisib
  log2 fold change: inactive: 0.1
gandotinib
  log2 fold change: inactive: 0.238
tozasertib
  log2 fold change: inactive: 0.049
doramapimod
  log2 fold change: inactive: 0.117
[2]
  log2 fold change: inactive: 0.475

## BBS7 (UniProt Q8IWZ6)
crizotinib
  log2 fold change: inactive: -0.036
[1]
  log2 fold change: inactive: 0.003
duvelisib
  log2 fold change: inactive: 0.039
gandotinib
  log2 fold change: inactive: 0.072
tozasertib
  log2 fold change: inactive: 0.021
doramapimod
  log2 fold change: inactive: 0.151
[2]
  log2 fold change: inactive: -0.119

## BMT2 (UniProt Q1RMZ1)
[1]
  log2 fold change: inactive: 0.116
gandotinib
  log2 fold change: inactive: -0.124
[2]
  log2 fold change: inactive: -0.056

## BTG1 (UniProt P62324)
crizotinib
  log2 fold change: inactive: 0.067
doramapimod
  log2 fold change: inactive: -0.011

## BRD9 (UniProt Q9H8M2)
[1]
  log2 fold change: inactive: 0.119
gandotinib
  log2 fold change: inactive: -0.099
tozasertib
  log2 fold change: inactive: -0.144
[2]
  log2 fold change: inactive: -0.032

## BHLHE40 (UniProt O14503)
crizotinib
  log2 fold change: inactive: -0.044
doramapimod
  log2 fold change: inactive: 0.024

## BRWD1 (UniProt Q9NSI6)
crizotinib
  log2 fold change: inactive: -0.013
duvelisib
  log2 fold change: inactive: 0.033
doramapimod
  log2 fold change: inactive: 0.07
